From the supplement of paper PMC10849652
The other results are listed elsewhere or left out.

By UniProt entry, the sequences of proteins in these tests, tags left out. Where a name states a change or a piece, a line headed by the entry shows the natural chain unless it says otherwise.
UniProt Q9NUG6, whole entry, looked up: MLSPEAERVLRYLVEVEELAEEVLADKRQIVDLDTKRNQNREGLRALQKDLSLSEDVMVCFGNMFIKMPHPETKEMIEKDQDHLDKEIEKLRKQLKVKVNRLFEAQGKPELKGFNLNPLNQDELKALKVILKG
UniProt P61457: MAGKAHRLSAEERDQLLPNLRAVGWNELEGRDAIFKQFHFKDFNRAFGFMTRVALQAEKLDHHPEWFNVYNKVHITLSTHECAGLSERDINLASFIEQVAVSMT
UniProt Q96RD7, whole entry, looked up: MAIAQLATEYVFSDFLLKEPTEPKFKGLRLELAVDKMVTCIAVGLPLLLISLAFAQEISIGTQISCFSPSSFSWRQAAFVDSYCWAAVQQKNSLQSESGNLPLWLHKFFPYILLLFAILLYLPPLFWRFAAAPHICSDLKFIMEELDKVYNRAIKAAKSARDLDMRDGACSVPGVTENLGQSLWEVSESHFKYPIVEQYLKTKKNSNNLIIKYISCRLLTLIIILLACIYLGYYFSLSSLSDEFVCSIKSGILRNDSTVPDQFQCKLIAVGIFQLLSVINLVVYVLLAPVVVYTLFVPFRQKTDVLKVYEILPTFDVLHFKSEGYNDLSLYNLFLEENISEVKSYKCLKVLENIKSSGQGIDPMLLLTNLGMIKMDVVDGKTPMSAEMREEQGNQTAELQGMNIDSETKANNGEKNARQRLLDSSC
UniProt Q5VU43: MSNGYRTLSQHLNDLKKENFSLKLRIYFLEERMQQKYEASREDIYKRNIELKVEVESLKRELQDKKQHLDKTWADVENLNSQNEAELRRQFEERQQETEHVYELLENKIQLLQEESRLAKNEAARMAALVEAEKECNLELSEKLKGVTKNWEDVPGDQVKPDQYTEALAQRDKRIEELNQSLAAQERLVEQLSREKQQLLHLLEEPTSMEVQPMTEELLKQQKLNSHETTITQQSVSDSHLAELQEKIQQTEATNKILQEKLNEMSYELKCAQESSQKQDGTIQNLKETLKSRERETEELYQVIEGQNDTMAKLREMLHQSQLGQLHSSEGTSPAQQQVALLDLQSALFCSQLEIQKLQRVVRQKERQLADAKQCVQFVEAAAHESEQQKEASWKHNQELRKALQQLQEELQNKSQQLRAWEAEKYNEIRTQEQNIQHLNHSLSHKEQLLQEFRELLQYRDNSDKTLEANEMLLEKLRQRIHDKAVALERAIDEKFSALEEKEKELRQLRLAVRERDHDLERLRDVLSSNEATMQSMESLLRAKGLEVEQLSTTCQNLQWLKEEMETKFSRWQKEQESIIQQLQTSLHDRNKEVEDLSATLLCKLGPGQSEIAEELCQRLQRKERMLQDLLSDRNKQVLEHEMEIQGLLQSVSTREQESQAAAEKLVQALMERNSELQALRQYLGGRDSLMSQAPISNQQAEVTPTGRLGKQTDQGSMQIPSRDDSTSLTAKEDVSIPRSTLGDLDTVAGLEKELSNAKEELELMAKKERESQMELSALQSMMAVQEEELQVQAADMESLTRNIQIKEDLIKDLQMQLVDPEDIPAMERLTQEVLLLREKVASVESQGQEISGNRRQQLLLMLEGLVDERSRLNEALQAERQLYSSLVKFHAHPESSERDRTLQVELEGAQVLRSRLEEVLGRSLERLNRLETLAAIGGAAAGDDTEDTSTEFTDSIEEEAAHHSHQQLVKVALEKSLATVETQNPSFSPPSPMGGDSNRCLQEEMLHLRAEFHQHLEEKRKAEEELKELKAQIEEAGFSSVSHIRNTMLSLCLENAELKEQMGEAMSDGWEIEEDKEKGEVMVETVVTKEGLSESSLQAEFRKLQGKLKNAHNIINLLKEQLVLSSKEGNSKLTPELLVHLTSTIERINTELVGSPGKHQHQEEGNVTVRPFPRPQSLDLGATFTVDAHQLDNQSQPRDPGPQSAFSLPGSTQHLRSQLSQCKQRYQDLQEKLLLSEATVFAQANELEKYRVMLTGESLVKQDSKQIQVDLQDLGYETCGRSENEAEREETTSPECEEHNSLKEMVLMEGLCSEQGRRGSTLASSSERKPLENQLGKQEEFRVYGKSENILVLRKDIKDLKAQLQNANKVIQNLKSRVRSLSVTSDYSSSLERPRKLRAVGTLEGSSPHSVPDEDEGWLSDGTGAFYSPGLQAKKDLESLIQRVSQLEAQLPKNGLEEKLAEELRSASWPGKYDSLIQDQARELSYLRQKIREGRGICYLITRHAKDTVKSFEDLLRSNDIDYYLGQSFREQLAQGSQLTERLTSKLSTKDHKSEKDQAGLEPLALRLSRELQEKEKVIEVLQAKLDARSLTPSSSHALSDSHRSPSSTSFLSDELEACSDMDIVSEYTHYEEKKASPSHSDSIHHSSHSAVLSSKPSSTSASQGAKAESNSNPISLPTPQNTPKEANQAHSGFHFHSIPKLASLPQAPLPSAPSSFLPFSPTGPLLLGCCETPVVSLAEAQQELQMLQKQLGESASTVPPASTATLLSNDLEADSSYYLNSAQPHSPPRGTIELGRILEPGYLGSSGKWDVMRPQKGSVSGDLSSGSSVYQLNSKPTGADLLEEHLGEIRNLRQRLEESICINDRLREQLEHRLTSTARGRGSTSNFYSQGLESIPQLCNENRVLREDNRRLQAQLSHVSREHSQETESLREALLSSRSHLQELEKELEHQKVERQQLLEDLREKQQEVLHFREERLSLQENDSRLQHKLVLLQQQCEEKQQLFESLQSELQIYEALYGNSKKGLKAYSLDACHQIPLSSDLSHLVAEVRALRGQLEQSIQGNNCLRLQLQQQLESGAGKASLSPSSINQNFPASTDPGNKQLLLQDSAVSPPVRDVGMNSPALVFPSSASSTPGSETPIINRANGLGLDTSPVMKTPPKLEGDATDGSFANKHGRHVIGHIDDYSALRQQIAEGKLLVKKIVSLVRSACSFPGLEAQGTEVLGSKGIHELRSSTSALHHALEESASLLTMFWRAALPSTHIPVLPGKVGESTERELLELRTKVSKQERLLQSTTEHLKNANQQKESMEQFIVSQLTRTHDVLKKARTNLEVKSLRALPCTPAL
UniProt Q7Z2X7: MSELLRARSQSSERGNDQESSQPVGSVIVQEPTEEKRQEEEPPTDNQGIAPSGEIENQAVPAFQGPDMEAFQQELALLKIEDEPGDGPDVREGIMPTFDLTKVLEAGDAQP
UniProt Q9H300: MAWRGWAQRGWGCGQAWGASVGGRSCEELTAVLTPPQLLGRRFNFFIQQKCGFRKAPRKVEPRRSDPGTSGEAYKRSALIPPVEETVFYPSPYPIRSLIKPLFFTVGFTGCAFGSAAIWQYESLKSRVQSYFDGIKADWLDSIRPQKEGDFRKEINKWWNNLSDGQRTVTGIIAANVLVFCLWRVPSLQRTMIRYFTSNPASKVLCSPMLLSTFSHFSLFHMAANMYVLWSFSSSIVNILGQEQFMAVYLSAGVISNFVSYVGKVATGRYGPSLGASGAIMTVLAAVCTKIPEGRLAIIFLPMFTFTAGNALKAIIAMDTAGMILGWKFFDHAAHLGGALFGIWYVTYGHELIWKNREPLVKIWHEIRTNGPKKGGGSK
UniProt Q99497, whole entry, looked up: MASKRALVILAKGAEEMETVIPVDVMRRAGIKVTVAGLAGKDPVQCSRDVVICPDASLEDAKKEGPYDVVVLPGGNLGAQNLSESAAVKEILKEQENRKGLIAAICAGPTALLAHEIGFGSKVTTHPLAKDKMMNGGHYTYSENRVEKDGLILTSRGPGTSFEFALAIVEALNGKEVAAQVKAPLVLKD
UniProt P12955: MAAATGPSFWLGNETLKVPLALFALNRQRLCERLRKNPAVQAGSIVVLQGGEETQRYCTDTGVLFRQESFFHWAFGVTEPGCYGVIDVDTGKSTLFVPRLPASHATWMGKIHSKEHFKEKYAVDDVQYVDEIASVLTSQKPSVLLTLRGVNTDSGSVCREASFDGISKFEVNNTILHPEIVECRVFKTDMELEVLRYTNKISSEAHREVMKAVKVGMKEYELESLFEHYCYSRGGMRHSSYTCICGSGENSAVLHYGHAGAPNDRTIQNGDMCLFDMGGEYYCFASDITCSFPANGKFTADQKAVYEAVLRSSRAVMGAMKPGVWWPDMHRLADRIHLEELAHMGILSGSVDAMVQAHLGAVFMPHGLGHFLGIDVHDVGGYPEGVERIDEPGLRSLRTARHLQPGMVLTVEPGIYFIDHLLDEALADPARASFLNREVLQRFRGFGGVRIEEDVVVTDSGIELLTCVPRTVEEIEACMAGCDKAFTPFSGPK
UniProt Q9H999: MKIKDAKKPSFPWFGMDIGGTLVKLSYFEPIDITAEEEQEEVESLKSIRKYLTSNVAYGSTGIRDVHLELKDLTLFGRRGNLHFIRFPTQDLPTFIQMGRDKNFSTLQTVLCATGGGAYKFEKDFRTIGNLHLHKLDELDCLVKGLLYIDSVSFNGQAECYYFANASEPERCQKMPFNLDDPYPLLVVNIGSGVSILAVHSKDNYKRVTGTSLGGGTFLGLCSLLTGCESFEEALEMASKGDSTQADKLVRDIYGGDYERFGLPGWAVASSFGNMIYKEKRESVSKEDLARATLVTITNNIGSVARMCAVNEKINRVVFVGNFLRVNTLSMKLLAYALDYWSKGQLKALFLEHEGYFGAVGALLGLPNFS
UniProt Q6L8Q7: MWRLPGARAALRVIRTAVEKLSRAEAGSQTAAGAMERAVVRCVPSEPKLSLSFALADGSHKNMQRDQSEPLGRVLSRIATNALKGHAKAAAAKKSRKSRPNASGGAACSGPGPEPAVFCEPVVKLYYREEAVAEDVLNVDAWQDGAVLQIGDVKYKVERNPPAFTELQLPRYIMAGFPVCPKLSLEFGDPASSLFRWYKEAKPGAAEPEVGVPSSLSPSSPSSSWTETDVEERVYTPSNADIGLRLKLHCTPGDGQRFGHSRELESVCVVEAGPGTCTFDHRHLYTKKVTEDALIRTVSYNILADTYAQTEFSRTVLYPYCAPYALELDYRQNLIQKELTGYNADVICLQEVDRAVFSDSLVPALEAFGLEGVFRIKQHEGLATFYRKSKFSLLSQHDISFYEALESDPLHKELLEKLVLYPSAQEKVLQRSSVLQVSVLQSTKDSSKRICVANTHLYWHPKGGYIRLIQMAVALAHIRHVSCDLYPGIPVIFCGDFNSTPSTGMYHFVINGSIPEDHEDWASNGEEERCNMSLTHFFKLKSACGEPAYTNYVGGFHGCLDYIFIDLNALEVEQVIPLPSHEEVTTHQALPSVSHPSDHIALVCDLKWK
UniProt P30039: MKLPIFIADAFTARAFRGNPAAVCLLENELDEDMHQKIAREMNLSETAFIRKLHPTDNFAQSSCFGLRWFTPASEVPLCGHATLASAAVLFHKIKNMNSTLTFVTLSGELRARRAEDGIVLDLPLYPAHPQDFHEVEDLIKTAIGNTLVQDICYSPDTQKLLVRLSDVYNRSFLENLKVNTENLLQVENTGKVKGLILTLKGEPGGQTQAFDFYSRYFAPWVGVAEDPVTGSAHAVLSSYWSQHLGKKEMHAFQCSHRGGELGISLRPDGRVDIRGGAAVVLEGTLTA
UniProt Q6VY07, whole entry, looked up: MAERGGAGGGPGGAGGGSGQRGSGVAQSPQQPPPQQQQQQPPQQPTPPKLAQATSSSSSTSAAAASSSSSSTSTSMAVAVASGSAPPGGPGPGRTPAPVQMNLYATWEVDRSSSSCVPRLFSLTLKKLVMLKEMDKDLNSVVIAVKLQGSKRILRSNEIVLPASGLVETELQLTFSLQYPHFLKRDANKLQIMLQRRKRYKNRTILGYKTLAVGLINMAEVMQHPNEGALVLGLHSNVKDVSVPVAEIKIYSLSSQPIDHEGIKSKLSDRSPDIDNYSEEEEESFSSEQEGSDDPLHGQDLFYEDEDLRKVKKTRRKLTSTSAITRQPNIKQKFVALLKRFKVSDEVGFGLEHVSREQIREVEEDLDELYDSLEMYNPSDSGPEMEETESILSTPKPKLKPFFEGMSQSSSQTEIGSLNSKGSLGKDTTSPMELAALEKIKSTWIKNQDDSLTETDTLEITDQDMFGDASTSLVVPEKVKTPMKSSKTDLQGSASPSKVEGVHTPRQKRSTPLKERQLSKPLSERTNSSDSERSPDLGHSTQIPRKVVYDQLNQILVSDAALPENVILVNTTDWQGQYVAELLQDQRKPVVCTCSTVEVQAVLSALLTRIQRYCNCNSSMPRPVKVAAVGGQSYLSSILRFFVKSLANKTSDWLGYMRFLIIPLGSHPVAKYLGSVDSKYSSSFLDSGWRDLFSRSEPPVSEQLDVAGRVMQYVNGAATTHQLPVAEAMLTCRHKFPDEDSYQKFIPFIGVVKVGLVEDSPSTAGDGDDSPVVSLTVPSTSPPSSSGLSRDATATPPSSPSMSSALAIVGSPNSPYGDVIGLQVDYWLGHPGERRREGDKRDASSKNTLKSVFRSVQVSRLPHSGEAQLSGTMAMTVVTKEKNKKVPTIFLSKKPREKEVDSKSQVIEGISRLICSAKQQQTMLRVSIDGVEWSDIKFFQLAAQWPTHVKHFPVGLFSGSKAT
UniProt Q5EBL8: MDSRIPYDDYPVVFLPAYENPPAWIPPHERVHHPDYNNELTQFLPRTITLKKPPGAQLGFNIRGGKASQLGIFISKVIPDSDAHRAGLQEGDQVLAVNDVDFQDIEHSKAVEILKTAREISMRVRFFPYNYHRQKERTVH

How the values were obtained:
Assay in all cases: log2 fold change, soluble protein after heating vs DMSO (PISA); higher = thermal stabilisation; K562 cells, 10 uM, 30 min; active = over 0.2 and 3.5 SD of the protein, either way, in both replicates (recomputed)
[1] = compound: CC[C@@H]1C(=O)N(C)c2cnc(Nc3ccc(C(=O)NC4CCN(C)CC4)cc3OC)nc2N1C1CCCC1
Method in brief: (§1)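 Quantification of soluble protein used TMTpro 16plex LC-MS/MS, with channel sums equalised. Samples were the supernatant after 21,000xg for 90 min of pooled aliquots from K562 cells (2×10^6 cells/mL) treated with 10 μM compound for 30 min, heated for 3 min over 48°C-58°C, and extracted in PBS with 0.5% NP-40 at 4°C. Values, from duplicates, describe thermal stability against control samples on a log2 fold-change scale.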

volasertib = compound: CC[C@@H]1C(=O)N(C)c2cnc(Nc3ccc(C(=O)N[C@H]4CC[C@H](N5CCN(CC6CC6)CC5)CC4)cc3OC)nc2N1C(C)C [volasertib]
Method in brief: as §1

[2] = compound: CC[C@H](C)N1C=C(C2=C(C=C(C=C21)C3=CN=C(C=C3)N4CCNCC4)C(=O)NCC5=C(C=C(NC5=O)C)C)C
Method in brief: as §1

epoxomicin = compound: CC[C@H](C)[C@@H](C(=O)N[C@@H]([C@@H](C)O)C(=O)N[C@@H](CC(C)C)C(=O)[C@]1(CO1)C)NC(=O)[C@H]([C@@H](C)CC)N(C)C(=O)C [epoxomicin]
Method in brief: as §1

[3] = compound: CCn1c(C(=O)N(C2CC2)C2CC2)cc2c3c(ncn3C)c(Nc3cc(C)n(C)n3)nc21
Method in brief: as §1

[4] = compound: CCn1cc(-c2ccnc3[nH]c(-c4cccc(CN(C)C)c4)cc23)c(-c2ccc(NC(=O)N(C)C)cc2)n1
Method in brief: as §1

[5] = compound: CN(C)CC(=O)Nc1ccc2[nH]c(=O)c3ccccc3c2c1
Method in brief: as §1

rosiglitazone = compound: CN(CCOC1=CC=C(C=C1)C[C@H]2C(=O)NC(=O)S2)C3=CC=CC=N3 (racemic) [rosiglitazone]
Method in brief: as §1

[6] = compound: CN1C2=C(C3=C1C(=O)N(N=C3)CC4=CC(=CC=C4)N)SC(=C2)S(=O)C
Method in brief: as §1

[7] = compound: CN1CCC(CNc2ccc3ncc(-c4cccc(OC(F)(F)F)c4)n3n2)CC1
Method in brief: as §1

saracatinib = compound: CN1CCN(CCOc2cc(OC3CCOCC3)c3c(Nc4c(Cl)ccc5c4OCO5)ncnc3c2)CC1 [saracatinib]
Method in brief: as §1

sotrastaurin = compound: CN1CCN(c2nc(C3=C(c4c[nH]c5ccccc45)C(=O)NC3=O)c3ccccc3n2)CC1 [sotrastaurin]
Method in brief: as §1

alvocidib = compound: CN1CC[C@H](c2c(O)cc(O)c3c(=O)cc(-c4ccccc4Cl)oc23)[C@H](O)C1 [alvocidib]
Method in brief: as §1

Tubastatin A = compound: CN1CCc2c(c3ccccc3n2Cc2ccc(C(=O)NO)cc2)C1 [Tubastatin A]
Method in brief: as §1

[8] = compound: CNC(=O)C1=CC=CC=C1NC2=NC(=NC=C2Cl)NC3=C(C=C(C=C3)N4CCOCC4)OC
Method in brief: as §1

defactinib = compound: CNC(=O)c1ccc(Nc2ncc(C(F)(F)F)c(NCc3nccnc3N(C)S(C)(=O)=O)n2)cc1 [defactinib]
Method in brief: as §1

rucaparib = compound: CNCc1ccc(-c2[nH]c3cc(F)cc4c3c2CCNC4=O)cc1 [rucaparib]
Method in brief: as §1

[9] = compound: CNc1nc(-c2ccc3c(N)n[nH]c3c2)cc(N2C[C@@H](C(=O)NC3CCCCC3)CC[C@H]2C)n1
Method in brief: as §1

encorafenib = compound: COC(=O)N[C@@H](C)CNc1nccc(-c2cn(C(C)C)nc2-c2cc(Cl)cc(NS(C)(=O)=O)c2F)n1 [encorafenib]
Method in brief: as §1

[10] = compound: COC(=O)[C@H](CCSC)NC(=O)C1=C(C=C(C=C1)NC[C@H](CS)N)C2=CC=CC=C2
Method in brief: as §1

Target | log2 fold change [1] | log2 fold change (volasertib) | log2 fold change [2] | log2 fold change (epoxomicin) | log2 fold change [3] | log2 fold change [4] | log2 fold change [5] | log2 fold change (rosiglitazone) | log2 fold change [6] | log2 fold change [7] | log2 fold change (saracatinib) | log2 fold change (sotrastaurin) | log2 fold change (alvocidib) | log2 fold change (Tubastatin A) | log2 fold change [8] | log2 fold change (defactinib) | log2 fold change (rucaparib) | log2 fold change [9] | log2 fold change (encorafenib) | log2 fold change [10]
PDRG1 (UniProt Q9NUG6) | inactive: 0.032 | inactive: 0.156 | inactive: 0 | inactive: 0.056 | inactive: 0.043 | inactive: 0.028 | inactive: -0.122 | inactive: 0.042 | inactive: -0.026 | inactive: -0.013 | inactive: 0.043 | inactive: -0.028 | inactive: 0.019 | inactive: 0.042 | inactive: -0.061 | inactive: -0.032 | inactive: 0.037 | inactive: -0.009 | inactive: -0.024 | inactive: 0.039
PCBD1 (UniProt P61457) | inactive: 0.057 | inactive: 0.148 | inactive: -0.032 | inactive: -0.012 | inactive: -0.047 | inactive: 0.026 | inactive: -0.05 | inactive: 0.001 | inactive: 0.041 | inactive: -0.105 | inactive: 0.023 | inactive: 0.028 | inactive: 0.011 | inactive: -0.01 | inactive: -0.087 | inactive: -0.003 | inactive: 0.034 | inactive: -0.042 | inactive: -0.014 | inactive: -0.01
PDS5A (UniProt Q29RF7) | inactive: -0.213 | inactive: -0.447 | inactive: 0.137 | inactive: 0.29 | – | inactive: 0.012 | inactive: -0.107 | – | inactive: 0.042 | inactive: -0.203 | inactive: -0.094 | active: -0.62 | – | inactive: -0.235 | inactive: 0.051 | inactive: -0.045 | inactive: -0.025 | inactive: 0.053 | inactive: 0.028 | inactive: 0.006
PDZD8 (UniProt Q8NEN9) | inactive: -0.019 | inactive: -0.064 | inactive: 0.021 | inactive: 0.013 | inactive: -0.013 | inactive: 0.036 | inactive: 0.023 | inactive: 0.062 | inactive: -0.036 | inactive: -0.051 | inactive: 0.058 | inactive: -0.046 | inactive: -0.06 | inactive: -0.018 | inactive: 0.004 | inactive: -0.065 | inactive: -0.035 | inactive: -0.006 | inactive: -0.006 | inactive: -0.016
PANX1 (UniProt Q96RD7) | inactive: 0.013 | inactive: -0.142 | inactive: -0.035 | inactive: -0.04 | inactive: 0.008 | inactive: -0.052 | inactive: -0.033 | inactive: 0.006 | inactive: 0.01 | inactive: 0.177 | inactive: -0.001 | inactive: -0.01 | inactive: -0.087 | inactive: 0.038 | inactive: -0.015 | inactive: -0.026 | inactive: 0 | inactive: -0.063 | inactive: -0.01 | inactive: 0.044
PDE4DIP isoform 4 (UniProt Q5VU43) | inactive: 0.013 | inactive: 0.005 | inactive: -0.071 | inactive: -0.012 | – | inactive: -0.009 | inactive: -0.035 | – | inactive: -0.046 | inactive: 0.006 | inactive: -0.028 | inactive: -0.064 | – | inactive: 0.064 | inactive: -0.065 | inactive: 0.021 | inactive: -0.057 | inactive: 0.007 | inactive: -0.015 | inactive: 0.035
PAGE2 (UniProt Q7Z2X7) | inactive: 0.085 | inactive: -0.047 | inactive: -0.025 | inactive: 0.118 | inactive: -0.064 | inactive: 0.067 | inactive: 0.009 | inactive: 0.002 | inactive: -0.11 | inactive: 0.013 | inactive: -0.003 | inactive: 0.072 | inactive: -0.036 | inactive: 0.133 | inactive: -0.004 | inactive: 0.014 | inactive: -0.047 | inactive: -0.07 | inactive: -0.087 | inactive: 0.083
PARL (UniProt Q9H300) | inactive: -0.059 | inactive: -0.008 | inactive: -0.009 | inactive: -0.076 | – | inactive: -0.062 | inactive: -0.035 | – | inactive: -0.004 | inactive: -0.134 | inactive: 0.056 | inactive: 0.019 | – | inactive: -0.053 | inactive: 0.025 | inactive: -0.011 | inactive: -0.005 | inactive: -0.052 | inactive: 0.029 | inactive: 0.015
PARK7 (UniProt Q99497) | inactive: 0.017 | inactive: 0.068 | inactive: 0 | inactive: -0.01 | inactive: -0.011 | inactive: 0.035 | inactive: 0.087 | inactive: 0.02 | inactive: -0.115 | inactive: 0.082 | inactive: 0.051 | inactive: 0 | inactive: -0.051 | inactive: -0.009 | inactive: -0.067 | inactive: -0.016 | inactive: -0.078 | inactive: 0.046 | inactive: 0.049 | inactive: 0.009
PEPD (UniProt P12955) | inactive: 0.045 | inactive: -0.01 | inactive: 0.023 | inactive: -0.004 | inactive: 0.013 | inactive: -0.044 | inactive: 0.019 | inactive: -0.054 | inactive: -0.012 | inactive: 0.017 | inactive: 0.036 | inactive: 0.03 | inactive: -0.038 | inactive: -0.008 | inactive: -0.006 | inactive: -0.012 | inactive: -0.002 | inactive: -0.073 | inactive: -0.015 | inactive: 0.028
PCNT (UniProt O95613) | inactive: 0.08 | inactive: 0.131 | inactive: -0.147 | inactive: -0.177 | – | inactive: -0.002 | inactive: -0.101 | – | inactive: 0.158 | active: -0.567 | inactive: -0.06 | inactive: 0.115 | – | inactive: -0.069 | inactive: -0.098 | inactive: 0.154 | inactive: -0.116 | inactive: 0.019 | inactive: 0.037 | inactive: 0.091
PANK3 (UniProt Q9H999) | inactive: 0.101 | inactive: -0.001 | inactive: -0.135 | inactive: 0.048 | inactive: -0.016 | inactive: -0.05 | – | inactive: 0.054 | inactive: 0.009 | inactive: 0.014 | inactive: 0.018 | inactive: 0.045 | inactive: -0.087 | inactive: 0.064 | inactive: -0.014 | – | inactive: -0.401 | inactive: -0.018 | inactive: 0.028 | –
PDE12 (UniProt Q6L8Q7) | inactive: -0.035 | inactive: -0.056 | inactive: -0.008 | inactive: 0.04 | – | inactive: -0.038 | inactive: 0.026 | – | inactive: -0.078 | inactive: -0.014 | inactive: 0.014 | inactive: 0.018 | – | inactive: 0.01 | inactive: 0.028 | inactive: -0.04 | inactive: -0.005 | inactive: 0.023 | inactive: -0.019 | inactive: 0.007
PBLD (UniProt P30039) | inactive: 0.03 | inactive: 0.02 | inactive: 0.006 | inactive: 0.014 | inactive: -0.02 | – | inactive: 0.009 | inactive: -0.026 | inactive: -0.086 | – | inactive: 0.02 | inactive: -0.014 | inactive: 0.012 | inactive: 0.066 | inactive: 0.002 | inactive: -0.005 | inactive: -0.013 | inactive: 0 | inactive: -0.032 | inactive: -0.003
PACS1 (UniProt Q6VY07) | inactive: 0 | inactive: -0.03 | inactive: 0.208 | inactive: -0.045 | – | inactive: -0.006 | inactive: 0.006 | – | inactive: 0.029 | inactive: 0.014 | inactive: -0.018 | inactive: -0.043 | – | inactive: 0.038 | inactive: -0.076 | inactive: -0.045 | inactive: 0.022 | inactive: 0.037 | inactive: -0.01 | inactive: -0.018
PDZD11 isoform 2 (UniProt Q5EBL8) | inactive: 0.034 | inactive: -0.142 | inactive: -0.003 | inactive: 0.109 | inactive: -0.155 | inactive: 0.004 | inactive: -0.077 | inactive: -0.013 | inactive: -0.062 | inactive: 0.001 | inactive: -0.068 | inactive: -0.055 | – | inactive: 0.122 | inactive: 0.083 | inactive: 0.014 | inactive: 0.063 | inactive: -0.19 | inactive: 0.007 | inactive: -0.032
PEF1 (UniProt Q9UBV8) | inactive: -0.144 | active: -0.329 | inactive: 0.035 | inactive: 0.101 | – | inactive: 0.002 | inactive: -0.061 | – | inactive: -0.005 | inactive: 0.048 | inactive: 0 | inactive: 0.053 | – | inactive: -0.004 | inactive: 0.049 | inactive: -0.01 | inactive: -0.019 | inactive: -0.014 | inactive: -0.025 | inactive: -0.003

Complete entries as entered above. Order of values: log2 fold change [1] | log2 fold change (volasertib) | log2 fold change [2] | log2 fold change (epoxomicin) | log2 fold change [3] | log2 fold change [4] | log2 fold change [5] | log2 fold change (rosiglitazone) | log2 fold change [6] | log2 fold change [7] | log2 fold change (saracatinib) | log2 fold change (sotrastaurin) | log2 fold change (alvocidib) | log2 fold change (Tubastatin A) | log2 fold change [8] | log2 fold change (defactinib) | log2 fold change (rucaparib) | log2 fold change [9] | log2 fold change (encorafenib) | log2 fold change [10]
PDE12 (UniProt Q6L8Q7) as listed: inactive: -0.035 | inactive: -0.056 | inactive: -0.008 | inactive: 0.04 | – | inactive: -0.038 | inactive: 0.026 | – | inactive: -0.078 | inactive: -0.014 | inactive: 0.014 | inactive: 0.018 | – | inactive: 0.01 | inactive: 0.028 | inactive: -0.04 | inactive: -0.005 | inactive: 0.023 | inactive: -0.019 | inactive: 0.007
PEF1 (UniProt Q9UBV8) as listed: inactive: -0.144 | active: -0.329 | inactive: 0.035 | inactive: 0.101 | – | inactive: 0.002 | inactive: -0.061 | – | inactive: -0.005 | inactive: 0.048 | inactive: 0 | inactive: 0.053 | – | inactive: -0.004 | inactive: 0.049 | inactive: -0.01 | inactive: -0.019 | inactive: -0.014 | inactive: -0.025 | inactive: -0.003
